The labels stand for the following.
T1: FLAG-Cas1 fusion protein (Haloferax volcanii) (UniProt D4GQP0)
T1 sequence: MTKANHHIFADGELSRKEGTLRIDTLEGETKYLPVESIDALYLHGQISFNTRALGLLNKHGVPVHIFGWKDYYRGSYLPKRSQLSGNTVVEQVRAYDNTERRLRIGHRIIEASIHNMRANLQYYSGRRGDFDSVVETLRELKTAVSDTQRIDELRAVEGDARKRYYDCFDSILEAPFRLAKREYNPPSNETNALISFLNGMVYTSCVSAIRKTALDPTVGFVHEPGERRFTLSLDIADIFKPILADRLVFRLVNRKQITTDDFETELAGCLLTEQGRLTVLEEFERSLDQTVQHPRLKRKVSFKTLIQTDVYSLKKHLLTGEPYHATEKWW

Protein sequences, listed by entry. Tags and fused reporters are not part of them. Lines headed by an entry give the natural chain unless they say otherwise; changes in a name come on top.
UniProt D4GVJ5: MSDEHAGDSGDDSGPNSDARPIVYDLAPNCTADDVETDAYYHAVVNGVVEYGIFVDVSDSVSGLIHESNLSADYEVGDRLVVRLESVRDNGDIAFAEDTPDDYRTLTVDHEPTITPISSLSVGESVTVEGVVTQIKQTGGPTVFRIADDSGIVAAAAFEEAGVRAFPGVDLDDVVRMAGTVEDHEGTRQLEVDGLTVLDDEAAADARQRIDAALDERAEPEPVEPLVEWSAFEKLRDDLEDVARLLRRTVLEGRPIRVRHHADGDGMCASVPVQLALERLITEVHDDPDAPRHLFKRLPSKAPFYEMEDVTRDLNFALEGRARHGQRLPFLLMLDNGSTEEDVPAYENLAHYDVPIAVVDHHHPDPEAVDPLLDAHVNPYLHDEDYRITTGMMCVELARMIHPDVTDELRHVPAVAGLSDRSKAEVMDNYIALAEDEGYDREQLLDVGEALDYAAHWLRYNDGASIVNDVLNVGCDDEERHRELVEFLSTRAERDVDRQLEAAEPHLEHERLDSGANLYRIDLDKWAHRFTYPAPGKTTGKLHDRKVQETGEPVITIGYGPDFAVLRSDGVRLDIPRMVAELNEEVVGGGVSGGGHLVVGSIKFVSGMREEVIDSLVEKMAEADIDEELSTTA
UniProt D4GSD5: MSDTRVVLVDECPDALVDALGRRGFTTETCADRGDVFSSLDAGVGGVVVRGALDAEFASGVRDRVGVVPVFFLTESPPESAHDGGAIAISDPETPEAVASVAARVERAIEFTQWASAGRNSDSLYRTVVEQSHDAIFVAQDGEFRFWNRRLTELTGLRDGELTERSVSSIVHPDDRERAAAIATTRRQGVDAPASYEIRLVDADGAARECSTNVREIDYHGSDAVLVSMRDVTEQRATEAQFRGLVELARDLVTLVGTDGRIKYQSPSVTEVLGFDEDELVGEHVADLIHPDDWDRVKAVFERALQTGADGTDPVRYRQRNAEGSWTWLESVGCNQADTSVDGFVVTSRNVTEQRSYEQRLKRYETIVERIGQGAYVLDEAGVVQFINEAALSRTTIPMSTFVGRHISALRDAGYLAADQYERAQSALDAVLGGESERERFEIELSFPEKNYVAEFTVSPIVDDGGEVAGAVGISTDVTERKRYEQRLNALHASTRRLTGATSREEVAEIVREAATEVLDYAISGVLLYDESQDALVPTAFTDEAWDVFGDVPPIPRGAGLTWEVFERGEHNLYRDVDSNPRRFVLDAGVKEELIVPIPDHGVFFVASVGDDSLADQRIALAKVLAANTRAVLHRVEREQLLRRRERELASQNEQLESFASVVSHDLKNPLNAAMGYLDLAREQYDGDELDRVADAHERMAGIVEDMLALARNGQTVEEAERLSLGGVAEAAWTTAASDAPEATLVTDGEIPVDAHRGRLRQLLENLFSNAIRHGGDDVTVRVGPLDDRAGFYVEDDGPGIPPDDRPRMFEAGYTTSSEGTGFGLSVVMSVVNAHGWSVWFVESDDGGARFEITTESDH
UniProt D4GUK5: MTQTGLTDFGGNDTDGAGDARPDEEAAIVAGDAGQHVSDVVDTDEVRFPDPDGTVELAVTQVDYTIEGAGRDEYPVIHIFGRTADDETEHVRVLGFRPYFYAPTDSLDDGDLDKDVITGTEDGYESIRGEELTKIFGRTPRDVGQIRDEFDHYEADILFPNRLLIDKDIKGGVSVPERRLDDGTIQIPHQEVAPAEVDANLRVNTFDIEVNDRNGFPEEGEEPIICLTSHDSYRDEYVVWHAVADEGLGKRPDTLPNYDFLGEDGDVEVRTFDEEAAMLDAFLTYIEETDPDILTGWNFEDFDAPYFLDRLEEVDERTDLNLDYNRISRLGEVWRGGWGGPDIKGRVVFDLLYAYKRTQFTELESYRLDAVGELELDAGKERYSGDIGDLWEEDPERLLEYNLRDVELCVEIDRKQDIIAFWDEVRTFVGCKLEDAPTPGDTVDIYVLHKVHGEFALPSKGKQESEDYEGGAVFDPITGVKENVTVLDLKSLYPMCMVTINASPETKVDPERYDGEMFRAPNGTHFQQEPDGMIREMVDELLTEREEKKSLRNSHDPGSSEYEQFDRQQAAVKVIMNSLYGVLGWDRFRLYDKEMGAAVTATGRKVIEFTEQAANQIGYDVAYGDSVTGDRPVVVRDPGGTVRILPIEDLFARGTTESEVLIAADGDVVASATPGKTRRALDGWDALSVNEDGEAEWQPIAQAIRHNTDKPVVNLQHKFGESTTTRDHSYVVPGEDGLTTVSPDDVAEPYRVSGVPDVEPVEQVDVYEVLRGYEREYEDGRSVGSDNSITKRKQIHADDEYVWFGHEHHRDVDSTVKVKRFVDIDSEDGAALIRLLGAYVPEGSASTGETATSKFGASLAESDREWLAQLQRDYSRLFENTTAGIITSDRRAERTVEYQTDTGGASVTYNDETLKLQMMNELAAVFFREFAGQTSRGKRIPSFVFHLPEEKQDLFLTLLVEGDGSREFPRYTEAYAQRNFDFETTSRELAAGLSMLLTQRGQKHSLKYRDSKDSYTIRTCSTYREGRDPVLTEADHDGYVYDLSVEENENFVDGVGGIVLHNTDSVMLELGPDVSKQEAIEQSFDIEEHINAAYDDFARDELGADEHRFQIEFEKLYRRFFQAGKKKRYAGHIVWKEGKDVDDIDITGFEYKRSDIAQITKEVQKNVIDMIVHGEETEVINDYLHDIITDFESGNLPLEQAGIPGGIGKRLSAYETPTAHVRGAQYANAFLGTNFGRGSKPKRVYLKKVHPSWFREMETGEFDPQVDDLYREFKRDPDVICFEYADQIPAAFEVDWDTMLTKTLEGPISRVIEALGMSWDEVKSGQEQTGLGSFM
UniProt D4GPF6: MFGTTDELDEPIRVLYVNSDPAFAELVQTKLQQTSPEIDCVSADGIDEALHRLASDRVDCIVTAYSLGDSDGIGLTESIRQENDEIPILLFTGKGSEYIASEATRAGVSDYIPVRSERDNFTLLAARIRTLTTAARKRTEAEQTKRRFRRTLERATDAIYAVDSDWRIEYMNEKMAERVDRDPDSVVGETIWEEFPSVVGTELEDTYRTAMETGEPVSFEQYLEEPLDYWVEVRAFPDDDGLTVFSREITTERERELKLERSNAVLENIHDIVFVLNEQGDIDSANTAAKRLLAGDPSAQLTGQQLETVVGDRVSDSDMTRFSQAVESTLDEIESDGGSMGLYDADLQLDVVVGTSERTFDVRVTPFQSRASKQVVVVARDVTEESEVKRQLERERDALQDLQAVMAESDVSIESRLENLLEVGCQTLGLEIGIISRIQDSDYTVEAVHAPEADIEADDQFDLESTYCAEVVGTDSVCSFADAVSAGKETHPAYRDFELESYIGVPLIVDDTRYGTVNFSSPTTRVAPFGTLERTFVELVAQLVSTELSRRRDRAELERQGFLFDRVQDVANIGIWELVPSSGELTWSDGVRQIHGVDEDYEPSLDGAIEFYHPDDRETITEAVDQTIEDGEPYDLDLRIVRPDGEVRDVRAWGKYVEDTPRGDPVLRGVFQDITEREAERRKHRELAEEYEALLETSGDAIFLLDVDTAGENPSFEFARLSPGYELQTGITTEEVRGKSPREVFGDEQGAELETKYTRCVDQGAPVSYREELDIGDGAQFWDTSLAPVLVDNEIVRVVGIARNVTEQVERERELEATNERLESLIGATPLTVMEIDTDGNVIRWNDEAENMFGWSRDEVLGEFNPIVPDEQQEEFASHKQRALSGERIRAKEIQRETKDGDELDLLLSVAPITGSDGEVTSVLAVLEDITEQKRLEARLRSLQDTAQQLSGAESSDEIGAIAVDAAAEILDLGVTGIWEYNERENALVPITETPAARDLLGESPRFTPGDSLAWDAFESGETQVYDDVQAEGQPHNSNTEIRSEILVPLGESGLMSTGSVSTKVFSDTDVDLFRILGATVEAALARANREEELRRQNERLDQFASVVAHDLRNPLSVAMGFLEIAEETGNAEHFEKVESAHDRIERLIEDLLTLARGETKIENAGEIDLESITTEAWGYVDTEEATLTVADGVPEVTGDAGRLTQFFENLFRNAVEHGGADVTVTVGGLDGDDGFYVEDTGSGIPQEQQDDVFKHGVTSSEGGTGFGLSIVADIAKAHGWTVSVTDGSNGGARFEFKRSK
UniProt D4GUM1: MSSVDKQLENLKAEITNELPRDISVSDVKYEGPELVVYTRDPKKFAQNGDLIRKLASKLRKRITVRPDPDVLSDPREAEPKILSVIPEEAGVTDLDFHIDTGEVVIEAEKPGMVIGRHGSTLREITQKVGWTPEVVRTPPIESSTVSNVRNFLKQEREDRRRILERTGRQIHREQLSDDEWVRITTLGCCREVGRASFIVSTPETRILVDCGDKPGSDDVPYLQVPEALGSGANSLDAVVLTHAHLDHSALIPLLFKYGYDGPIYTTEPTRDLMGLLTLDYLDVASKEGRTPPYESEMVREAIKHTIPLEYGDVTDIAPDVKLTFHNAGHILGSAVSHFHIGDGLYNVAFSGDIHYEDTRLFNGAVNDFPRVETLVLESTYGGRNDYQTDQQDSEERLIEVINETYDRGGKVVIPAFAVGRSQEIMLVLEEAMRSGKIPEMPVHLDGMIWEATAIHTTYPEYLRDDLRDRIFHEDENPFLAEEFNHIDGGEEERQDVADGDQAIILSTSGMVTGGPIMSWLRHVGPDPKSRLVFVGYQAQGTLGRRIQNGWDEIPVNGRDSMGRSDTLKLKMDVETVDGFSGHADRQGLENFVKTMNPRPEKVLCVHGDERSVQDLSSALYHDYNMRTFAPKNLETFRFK
UniProt D4GQN5: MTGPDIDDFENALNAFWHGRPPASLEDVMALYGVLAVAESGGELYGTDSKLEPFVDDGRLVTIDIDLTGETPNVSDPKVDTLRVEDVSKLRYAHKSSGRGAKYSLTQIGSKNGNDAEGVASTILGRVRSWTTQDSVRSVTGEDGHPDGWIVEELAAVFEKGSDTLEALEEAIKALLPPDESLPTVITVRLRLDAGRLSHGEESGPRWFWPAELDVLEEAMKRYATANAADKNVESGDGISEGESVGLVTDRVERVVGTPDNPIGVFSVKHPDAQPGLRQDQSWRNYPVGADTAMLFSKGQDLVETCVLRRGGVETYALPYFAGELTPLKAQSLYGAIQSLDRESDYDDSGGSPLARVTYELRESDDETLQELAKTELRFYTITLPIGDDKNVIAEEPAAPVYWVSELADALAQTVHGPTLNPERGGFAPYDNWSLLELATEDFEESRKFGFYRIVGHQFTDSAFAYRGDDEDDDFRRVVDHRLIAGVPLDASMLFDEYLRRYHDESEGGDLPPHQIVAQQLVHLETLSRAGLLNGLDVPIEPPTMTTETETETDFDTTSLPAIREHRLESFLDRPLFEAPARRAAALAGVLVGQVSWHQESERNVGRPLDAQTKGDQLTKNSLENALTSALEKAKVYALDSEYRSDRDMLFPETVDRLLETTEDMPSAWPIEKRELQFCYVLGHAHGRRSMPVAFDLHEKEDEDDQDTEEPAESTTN

B1: UvrABC system protein A (protein, UniProt D4H019 1-983)
chain: MSKDYIEVRGAEEHNLKNLDVRIPRETFTVVTGLSGSGKSSLAFDTVYAEGQRRYIESLSAYARNFLGQMDKPKVEAVEGLSPAISIDQKNGANNPRSTVGTVTELHDYLRLLYARVGTQYDPITGAEVGEQSAQDMVDQILELPEGTRAKVVAPVVRDQKGEFKDLFSDLVSEGYARVEVDGEEFDLSFETPDLDKNYDHTIDVVVDRVKVAPEARSRIADSVETALEEAGGVLKLIVPDPPADLPFASNTRSTGSLAGEGDDRLVVEFSEELGNPNSSFRFSEIETRSFSFNSPHGACPECEGLGKAKEVDPDLVVTDPSKPLKHVFEPWSYNRTYYRRQLDNVADHFGVSVDTPFEELSDEVQDAFLFGTSEDVVFEWTTKNGTRHKEHPFEGVVGNLERRHVETDSDRTRDHIEEFMAVTTCPDCNGSRLKEQSRHVRVGGTTLPEVNRMTIAGALEHFEGLEADLSERHRTIAQEILKEIRARLGFMTEVGLEYLTLDREAATLSGGESQRIRLATQVGSGLVGVLYVLDEPSIGLHQRDNDKLLNTLEGLRDLGNTLIVVEHDEETMRRADEIIDMGPGPGKRGGEVVAQGDFDDIVAADDSITADYLSGRKDIDVPESRREGDGELVVRGARQHNLDDLDVPIPLETFTAVTGVSGSGKSTLMHEILYKGLARRMNDNTSVDPGEHDAIEGYDDIETVRLIDQSPIGRTPRSNPATYTGVFDYVRELFAETKLSKQRGYEKGRFSFNVKGGRCEACKGQGNVKIEMNFLSDVYVPCEECNGARYNAETLDVTYKDKTIADVLDMEVDEALDFFEANSQIRRRLQLLHDVGLGYMQLGQPSTTLSGGEAQRVKLAEELGKKQTGDTLYLLDEPTTGLHKEDERKLIEVLQRLVDNGNTVLVVEHELDLVKNADHIVDLGPEGGAGGGTIVASGTPEEIAANPDSHTGRYLRDYLPDVDEEGPRSDRRKPAKVTNDDD
B2: ATP-dependent DNA helicase Hel308a (enzyme, UniProt D4GYK9 1-827)
chain: MRTADLTGLPTGIPEALRDEGIEELYPPQAEAVEAGLTDGESLVAAVPTASGKTLIAELAMLSSVARGGKALYIVPLRALASEKKAEFERWEEYGIDVGVSTGNYESDGEWLSSRDIIVATSEKVDSLVRNNAAWMDQLTCVVADEVHLVDDRHRGPTLEVTLAKLRRLNTNLQVVALSATVGNAGVVSDWLDAELVKSDWRPIDLKMGVHYGNAVSFADGSQREVPVGRGERQTPALVADALEGDGEGDQGSSLVFVNSRRNAESAARRMADVTERYVTGDERSDLAELAAEIRDVSDTETSDDLANAVAKGAAFHHAGLAAEHRTLVEDAFRDRLIKCICATPTLAAGVNTPSRRVVVRDWQRYDGDYGGMKPLDVLEVHQMMGRAGRPGLDPYGEAVLLAKDADARDELFERYIWADAEDVRSKLAAEPALRTHLLATVASGFAHTREGLLEFLDQTLYATQTDDPERLGQVTDRVLDYLEVNGFVEFEGETIQATPVGHTVSRLYLDPMSAAEIIDGLEWAADHRTEKLRALAGETPEKPTRDRSESDESGGFQRASEMVADDGDGGGGEDGVGANGDGDSDDADGVETDRTYPTPLGLYHLVCRTPDMYQLYLKSGDRETYTELCYEREPEFLGRVPSEYEDVAFEDWLSALKTAKLLEDWVGEVDEDRITERYGVGPGDIRGKVETSEWLLGAAERLATELDLDSVYAVREAKKRVEYGVREELLDLAGVRGVGRKRARRLFEAGVETRADLREADKPRVLAALRGRRKTAENILEAAGRKDPSMDAVDEDDAPDDAVPDDAGFETAKERADQQASLGDFE
B3: ATP-dependent DNA helicase MCM (enzyme, UniProt D4GZG5 1-702)
chain: MAQAPQNRDLTERFIEFYRNYYREEIGTLAQQYPKEKRSLHIDYDDLYRFDSELADDYITKPGQFQEYAEEALRLFDLPADVKLGQAHVRMRNLPETVDIRNLRVNDDHIGTLISVQGIVRKATDVRPKITEAAFECQRCGTMSYIPQGDGGFQEPHECQGCERQGPFRIDFDQSNFVDSQKLRVQESPEGLRGGETPQSIDINLSDDVTGKVTAGDHVTVVGVLHIEQQTSGNEKTPVFDYYMEGISLTIEDEEFEDMEISDEDVAEIVELSNDPAIYEKMVESVAPAIYGYEQEKIAMILQLFSGVTKHLPDGSRIRGDLHMLLIGDPGTGKSQMLSYIRHIAPRSVYTSGKGSSSAGLTAAAVRDDFGDGQQWTLEAGALVLADKGIAAVDELDKMRPEDRSAMHEGLEQQQISVSKAGINATLKSRCSLLGAANPKYGRFDQYEPIGEQIDLEPALISRFDLIFTVTDDPDPDEDSKLADHILKTNYAGELNTQRTNVANSEFTEQQVDAVTDEVAPTIDADLLRKYIAYAKRTCYPTMTDEAKEVIRDFYVDFRARGADEDAPVPVTARKLEALVRLGEASARVRLSDKVTREDAERVTGIVESCLRDIGMDPETGEFDADIVETGRSKTQRDRIKNLLELIRTMQEEYEEGAPHEEVLERANSELNMDEKTVNDQLDKLKMKGDIYEPRGDVYRAT
B4: ribonuclease J (enzyme, UniProt D4GW49 1-450)
chain: MEIEIATIGGYEEVGRQMTAVRAGDDVVVFDMGLNLSQVLIHDNVETEKMHSLDLIDMGAIPDDRVMSDLEGDVQAIVPTHGHLDHIGAISKLAHRYDAPVVATPFTIELVKQQIEGENKFNVNNDLVKMEAGETMSIGDSGNVELEFVHVTHSIIDAINPVVHTPEGAVVYGLDKRMDHSPVLEDPIDMKRFREIGREGNGVLAYIEDCTNAGRKGRTPSESVARRHLKDVMTSVEDYDGGIVATTFSSHISRVSSLVEFAKDIGRQPVLLGRSMEKYSGTAERLGFVDLPDDLGMYGHRKSVDRTFKRIMKEGKENYLPIVTGHQGEPRAMLTRMGRGETPYEIDDGDKVIFSARVIPEPTNEGQRYQSERLLRMQGARIYDEIHVSGHLREEGHYEMLQALQPQHVIPAHQNLKGFAPYVDLAESQGYALGRDLHVTRNGNMIQLVE
B5: DNA mismatch repair protein MutS (protein, UniProt D4GSE9 1-924)
chain: MTTQGIVGQFLSLKEETDADLLAMQCGDFYEFFADDAETVGRELDLKVSQKSSHGSSYPMAGVPLNDLTPYLKALVERGYRVAVADQYETESGDLRREVKRVVTPGTLLETSRADAQFLAAVVTDGDGVGLAFSDITTGQFLVTEAATVDDAAAELYRFAPVEVLPGPELRSDDETLSRLREATDASFSLFATEAFAPGRARHAVREQFGASTVDSVGLDSDLATRAAGGVLAYVEETGAGVLRSMTRLQVYHPSDLLELDATTQRNLELTETMHGDRSGSLFDTIDHTVTSPGGRLLREWLTRPRRDRDELARRHDAVESLASAALARERVREVLDGAYDLERLASRSASGSAGASELLSVRDTLSVLPALADAIEGTELADSPLAEVVSRPDRDAAADLRTDLADALAEDPPKTVTQGGLFQTGYDDELDDLIERHESAKSWLDTLADREKRDHGLSHVTVDRNKTDGYYIQVGKSVADQVPDHYRQIKTLKNSKRFVTEELEEKEREILRLEEARGDLEYELFEDLRERVARHAELLQDVGRTIAEVDALASLATHAAGNGWTRPELTEAGALDIEAGRHPVVETTTDFVPNDLRMDDERGFLIVTGPNMSGKSTYMRQAALITLLAQVGSFVPARSATVGVVDGIYTRVGALDELAQGRSTFMVEMQELSNILHSATEDSLVILDEVGRGTATYDGISIAWAATEYLHNEVRAKTLFATHYHELTSLADHLDRVANVHVAADERDGDVTFLRTVVDGPTDRSYGIHVADLAGVPRPVVDRAGDVLDRLREEKAIEAKGSGTSEPVQAVFDVGSGQMKVAEAGDSGGDGDDSAGSGAPANGATGTGAAGNGSVDAAAAVEGSAEADRAGTGSDSEAEAALDPETEAVLDELQSTDVNDTSPLDLMAKVQAWQSKLDGGDGE

No constants are given. Whether binding was seen depends on the method and setting. Binding seen in cells or lysates may run through a third protein. Here binding means that the protein was enriched with, or labelled near, the bait; the list need not be complete. Tags and fused reporters may be left off the sequences shown.

The target in this assay is T1, FLAG-Cas1 fusion protein (Haloferax volcanii). As to the kind of experiment: affinity purification with mass spectrometry; FLAG-Cas1 expressed in H. volcanii Δcas1; S100 lysate treated with DNase and RNase A, 150 mM NaCl; anti-FLAG M2 affinity gel overnight at 4°C, washed with 50 mM Tris/HCl pH 7.4, 150 mM NaCl, eluted with 3xFLAG peptide; gel filtration (Superdex 75 Increase), fractions with Cas1 at about 670 kDa analysed by MS; two FLAG-Cas1 purifications, one FLAG-only control. (In general: In gel filtration, larger molecules generally elute earlier.)
In the case of “Hef-associated 3 exonuclease (from UniProt D4GVJ5) (enzyme)”, the binding result was “binds”.
As for “sensor box histidine kinase (from UniProt D4GSD5) (enzyme)”, the entry is “binds”.
With “DNA-directed DNA polymerase B (intein-containing) (from UniProt D4GUK5) (enzyme)”, the binding result is listed as “binds”.
Turning to “receiver/sensor box histidine kinase (from UniProt D4GPF6) (enzyme)”, the binding entry is on record as “binds”.
“zinc-dependent nuclease CPSF1 (from UniProt D4GUM1) (enzyme)”: the binding entry was “binds”.
The value for Cas8b (from UniProt D4GQN5) was “binds”; that for B1 was “binds”; that for B2 was “binds”.
For B3, the binding entry is listed as “binds”.
For the molecule B4, the binding result was “binds”.
The value for B5 was “binds”.
